This note sets out measurements from publication PMC11005040, “Photoactivatable Ruthenium Complexes Containing Minimal Straining Benzothiazolyl-1,2,3-triazole Chelators for Cancer Treatment” (Inorganic Chemistry, 2024).

The structures appear in SMILES notation.

A short description of the data set: Singlet oxygen quantum yield (DPBF). In kind it is physicochemical. The conditions noted are these: aerated acetonitrile, irradiation 465 nm.
`Cc1ccc(-n2cc(-c3nc4ccccc4s3)nn2)cc1.O=S(=O)([O-])C(F)(F)F.O=S(=O)([O-])C(F)(F)F.[Ru+2].c1cnc2c(c1)ccc1cccnc12.c1cnc2c(c1)ccc1cccnc12` [Ru1, [Ru(phen)2(L1)][OTf]2]: the “1O2 generation quantum yield ΦΔ (air)” value was found to be 0.02.

With `FC(F)(F)c1ccc(-n2cc(-c3nc4ccccc4s3)nn2)cc1.O=S(=O)([O-])C(F)(F)F.O=S(=O)([O-])C(F)(F)F.[Ru+2].c1cnc2c(c1)ccc1cccnc12.c1cnc2c(c1)ccc1cccnc12` [Ru3, [Ru(phen)2(L3)][OTf]2], the “1O2 generation quantum yield ΦΔ (air)” value was 0.03. Regarding `O=S(=O)([O-])C(F)(F)F.O=S(=O)([O-])C(F)(F)F.O=[N+]([O-])c1ccc(-n2cc(-c3nc4ccccc4s3)nn2)cc1.[Ru+2].c1cnc2c(c1)ccc1cccnc12.c1cnc2c(c1)ccc1cccnc12` [Ru4, [Ru(phen)2(L4)][OTf]2], the “1O2 generation quantum yield ΦΔ (air)” value was found to be 0.04. As for `CN(C)c1ccc(-n2cc(-c3nc4ccccc4s3)nn2)cc1.O=S(=O)([O-])C(F)(F)F.O=S(=O)([O-])C(F)(F)F.[Ru+2].c1cnc2c(c1)ccc1cccnc12.c1cnc2c(c1)ccc1cccnc12` [Ru5, [Ru(phen)2(L5)][OTf]2], the figure is 0.01.
